We go through 22 compounds from the supplement of paper PMC11659162.

This is one part of the list. The data scatter; read single values as rough.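 The cells are a human neuroglioma line carrying a green fluorescent autophagy reporter.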

The subject of assay [1] is H4 GFP-LC3. In words: cell viability (scaled to control) (fraction of control); higher = more viable cells.
Assay [2] has as its system H4 GFP-LC3. In words: ACBP immunofluorescence intensity (scaled to control) (AU (scaled)); higher = more intracellular ACBP/DBI.

In the case of `O=C(c1ccc(F)cc1)C1CCN(CCn2c(=O)[nH]c3ccccc3c2=O)CC1` (5 µM), the cell viability in the assay on H4 GFP-LC3 [1] (6 h) was found to be 0.818; in the assay with H4 GFP-LC3 [1] (24 h), 1.01. Moreover, the ACBP immunofluorescence intensity in the assay with H4 GFP-LC3 [2] (6 h) was determined as 0.992; with H4 GFP-LC3 [2] (24 h), 0.869.

On to `N[C@@H](CCS(=O)O)C(=O)O` (5 µM), for which the cell viability is 1.03 with H4 GFP-LC3 [1] (6 h) and 1.3 in the assay on H4 GFP-LC3 [1] (24 h). The values for the ACBP immunofluorescence intensity in the assay with H4 GFP-LC3 [2] (6 h) and in the assay on H4 GFP-LC3 [2] (24 h) were 0.802 and 0.47, respectively.

For `O=C(O)c1ccncc1` (5 µM), the cell viability in the assay with H4 GFP-LC3 [1] (6 h) was determined as 0.763; in the assay on H4 GFP-LC3 [1] (24 h) it was 1.04. For the same compound, the ACBP immunofluorescence intensity with H4 GFP-LC3 [2] (6 h) was found to be 0.985; with H4 GFP-LC3 [2] (24 h) it was 0.52.

Consider `CC(C)(C)c1ccc(C(O)CCCN2CCC(C(O)(c3ccccc3)c3ccccc3)CC2)cc1` (stereo not drawn) (5 µM), for which the figures for the cell viability in the assay on H4 GFP-LC3 [1] (6 h) and in the assay on H4 GFP-LC3 [1] (24 h) were 0.838 and 1, respectively. Moreover, the figures for the ACBP immunofluorescence intensity in the assay on H4 GFP-LC3 [2] (6 h) and in the assay on H4 GFP-LC3 [2] (24 h) were 0.942 and 0.929, respectively.

Turning to `Oc1ccc(C2CNCCc3c2cc(O)c(O)c3Cl)cc1` (stereo not drawn) (5 µM), the values for the cell viability in the assay on H4 GFP-LC3 [1] (6 h) and in the assay on H4 GFP-LC3 [1] (24 h) were 0.918 and 0.993, respectively. Moreover, the ACBP immunofluorescence intensity in the assay with H4 GFP-LC3 [2] (6 h) came out at 0.484; in the assay with H4 GFP-LC3 [2] (24 h), 0.554.

In the case of `NC(C(=O)O)(c1ccc(P(=O)(O)O)cc1)C1CC1` (racemic) (5 µM), the figures for the cell viability with H4 GFP-LC3 [1] (6 h) and in the assay with H4 GFP-LC3 [1] (24 h) were 0.901 and 1.19, respectively. Moreover, the ACBP immunofluorescence intensity in the assay on H4 GFP-LC3 [2] (6 h) amounted to 0.94; in the assay on H4 GFP-LC3 [2] (24 h), 0.586.

As to `CC(=O)NCC(=O)N[C@H](CCC(=O)O)C(=O)O` (5 µM), the values for the cell viability in the assay on H4 GFP-LC3 [1] (6 h) and in the assay with H4 GFP-LC3 [1] (24 h) were 0.987 and 0.99, respectively. Besides, the ACBP immunofluorescence intensity in the assay on H4 GFP-LC3 [2] (6 h) was found to be 0.975; in the assay on H4 GFP-LC3 [2] (24 h), 0.797.

As to `c1cc(CN2CCCCC2)cc(OCCCNc2nc3ccccc3s2)c1` (5 µM), the cell viability stood at 1.08 with H4 GFP-LC3 [1] (6 h) and 1.03 with H4 GFP-LC3 [1] (24 h). For the same compound, the ACBP immunofluorescence intensity in the assay with H4 GFP-LC3 [2] (6 h) was found to be 0.902; with H4 GFP-LC3 [2] (24 h), 0.569.

For the compound `CC(C)NCC(O)COc1cccc2ccccc12` (stereo not drawn) (5 µM), the figures for the cell viability in the assay on H4 GFP-LC3 [1] (6 h) and in the assay with H4 GFP-LC3 [1] (24 h) were 0.8 and 0.972, respectively. The ACBP immunofluorescence intensity in the assay with H4 GFP-LC3 [2] (6 h) was determined as 0.942; with H4 GFP-LC3 [2] (24 h), 0.269.

Take `NC1C=CC=C(C(=O)O)C1` (stereo not drawn) (5 µM): the cell viability came out at 0.97 with H4 GFP-LC3 [1] (6 h) and 1.17 in the assay with H4 GFP-LC3 [1] (24 h). Also, the figures for the ACBP immunofluorescence intensity in the assay with H4 GFP-LC3 [2] (6 h) and with H4 GFP-LC3 [2] (24 h) were 0.951 and 0.821, respectively.

Turning to `Cc1ccccc1C(OCCN(C)C)c1ccccc1` (stereo not drawn) (5 µM), the results for the cell viability with H4 GFP-LC3 [1] (6 h) and with H4 GFP-LC3 [1] (24 h) were 1 and 1.19, respectively. Further, the results for the ACBP immunofluorescence intensity in the assay with H4 GFP-LC3 [2] (6 h) and in the assay on H4 GFP-LC3 [2] (24 h) were 0.823 and 0.507, respectively.

Consider `COC(=O)[C@H](c1ccccc1Cl)N1CCc2sccc2C1` (5 µM), for which the values for the cell viability with H4 GFP-LC3 [1] (6 h) and in the assay on H4 GFP-LC3 [1] (24 h) were 0.962 and 1.25, respectively. Further, the ACBP immunofluorescence intensity with H4 GFP-LC3 [2] (6 h) came out at 0.991; in the assay on H4 GFP-LC3 [2] (24 h), 0.518.

Consider `COC(=O)[C@@H]1[C@H]2C[C@H]3c4[nH]c5ccccc5c4CCN3C[C@@H]2CC[C@@H]1O` (5 µM), for which the values for the cell viability in the assay on H4 GFP-LC3 [1] (6 h) and with H4 GFP-LC3 [1] (24 h) were 0.933 and 0.931, respectively. The ACBP immunofluorescence intensity with H4 GFP-LC3 [2] (6 h) came out at 0.751; in the assay on H4 GFP-LC3 [2] (24 h), 0.436.

For `CC[C@H](C)[C@H](NC(=O)[C@H](C)NC(=O)[C@H](CC(=O)O)NC(=O)[C@H](C)NC(=O)[C@@H](N)Cc1ccc(O)cc1)C(=O)N[C@@H](Cc1ccccc1)C(=O)N[C@H](C(=O)N[C@@H](CC(N)=O)C(=O)N[C@@H](CO)C(=O)N[C@@H](Cc1ccc(O)cc1)C(=O)N[C@@H](CCCNC(=N)N)C(=O)N[C@@H](CCCCN)C(=O)N[C@H](C(=O)N[C@@H](CC(C)C)C(=O)NCC(=O)N[C@@H](CCC(N)=O)C(=O)N[C@@H](CC(C)C)C(=O)N[C@@H](CO)C(=O)N[C@@H](C)C(=O)N[C@@H](CCCNC(=N)N)C(=O)N[C@@H](CCCCN)C(=O)N[C@@H](CC(C)C)C(=O)N[C@@H](CC(C)C)C(=O)N[C@@H](CCC(N)=O)C(=O)N[C@@H](CC(=O)O)C(=O)N[C@H](C(=O)N[C@@H](CCSC)C(=O)N[C@@H](CO)C(=O)N[C@@H](CCCNC(=N)N)C(=O)N[C@@H](CCC(N)=O)C(=O)N[C@@H](CCC(N)=O)C(=O)NCC(=O)N[C@@H](CCC(=O)O)C(=O)N[C@@H](CO)C(=O)N[C@@H](CC(N)=O)C(=O)N[C@@H](CCC(N)=O)C(=O)N[C@@H](CCC(=O)O)C(=O)N[C@@H](CCCNC(=N)N)C(=O)NCC(=O)N[C@@H](C)C(=O)N[C@@H](CCCNC(=N)N)C(=O)N[C@@H](C)C(=O)N[C@@H](CCCNC(=N)N)C(=O)N[C@@H](CC(C)C)C(N)=O)[C@@H](C)CC)C(C)C)[C@@H](C)O` (5 µM), the figures for the cell viability in the assay with H4 GFP-LC3 [1] (6 h) and in the assay on H4 GFP-LC3 [1] (24 h) were 1.25 and 1.12, respectively. The ACBP immunofluorescence intensity amounted to 0.762 in the assay on H4 GFP-LC3 [2] (6 h) and 0.893 in the assay with H4 GFP-LC3 [2] (24 h).

On to `COc1ccccc1N1CCN(CCCNc2cc(=O)n(C)c(=O)n2C)CC1` (5 µM), for which the cell viability came out at 0.911 with H4 GFP-LC3 [1] (6 h) and 0.906 in the assay on H4 GFP-LC3 [1] (24 h). The ACBP immunofluorescence intensity amounted to 0.693 with H4 GFP-LC3 [2] (6 h) and 0.51 in the assay with H4 GFP-LC3 [2] (24 h).

As to `CC(C)NC[C@H](O)COc1ccc(CC(N)=O)cc1` (5 µM), the cell viability came to 0.977 in the assay with H4 GFP-LC3 [1] (6 h) and 0.927 in the assay with H4 GFP-LC3 [1] (24 h). Further, the ACBP immunofluorescence intensity in the assay on H4 GFP-LC3 [2] (6 h) amounted to 0.873; in the assay with H4 GFP-LC3 [2] (24 h) it was 0.519.

Consider `N[C@H](CCC(=O)NCC(=O)O)C(=O)O` (5 µM), for which the cell viability in the assay on H4 GFP-LC3 [1] (6 h) and in the assay with H4 GFP-LC3 [1] (24 h) was 1.13 in each case. Also, the ACBP immunofluorescence intensity was determined as 0.829 with H4 GFP-LC3 [2] (6 h) and 0.397 in the assay on H4 GFP-LC3 [2] (24 h).

On to `Cc1cccc(C(=O)NCN2CCN(c3ccccc3C#N)CC2)c1` (5 µM), for which the cell viability in the assay on H4 GFP-LC3 [1] (6 h) was determined as 0.837; with H4 GFP-LC3 [1] (24 h) it was 1.36. The ACBP immunofluorescence intensity with H4 GFP-LC3 [2] (6 h) came to 0.99; in the assay on H4 GFP-LC3 [2] (24 h), 0.864.

Take `CC(C)NC[C@@H](O)COc1ccc(CC(N)=O)cc1` (5 µM): the results for the cell viability in the assay on H4 GFP-LC3 [1] (6 h) and in the assay with H4 GFP-LC3 [1] (24 h) were 0.797 and 0.884, respectively. Besides, the ACBP immunofluorescence intensity was 0.917 in the assay with H4 GFP-LC3 [2] (6 h) and 0.795 with H4 GFP-LC3 [2] (24 h).

Take `COC(=O)[C@H]1[C@H]2C[C@H]3c4[nH]c5ccccc5c4CCN3C[C@H]2CC[C@@H]1O` (5 µM): the figures for the cell viability with H4 GFP-LC3 [1] (6 h) and with H4 GFP-LC3 [1] (24 h) were 0.719 and 0.79, respectively. The results for the ACBP immunofluorescence intensity in the assay on H4 GFP-LC3 [2] (6 h) and with H4 GFP-LC3 [2] (24 h) were 0.728 and 0.401, respectively.

In the case of `CN1CCN(CC(=O)N2c3ccccc3C(=O)Nc3cccnc32)CC1` (5 µM), the cell viability was found to be 0.665 in the assay on H4 GFP-LC3 [1] (6 h) and 1.18 in the assay on H4 GFP-LC3 [1] (24 h). For the same compound, the ACBP immunofluorescence intensity stood at 0.959 with H4 GFP-LC3 [2] (6 h) and 0.565 with H4 GFP-LC3 [2] (24 h).

Regarding `O=c1[nH]c(=O)c2nc3ccccc3nc2[nH]1` (5 µM), the cell viability in the assay with H4 GFP-LC3 [1] (6 h) turned out to be 0.995; in the assay with H4 GFP-LC3 [1] (24 h), 1.23. Moreover, the ACBP immunofluorescence intensity with H4 GFP-LC3 [2] (6 h) stood at 0.957; in the assay on H4 GFP-LC3 [2] (24 h), 0.822.
